Some results were stated once for a whole list of compounds, not compound by compound.
System: homozygous rho/PDGF-A mice
Test: Retinal detachment in homozygous rho/PDGF-A mice at P50
Assay type: in vivo
Conditions: 50 mg/kg once a day by gavage from P7, P50, vehicle more than 60%
Protocol: Mice are treated humanely in accordance with Association for Research in Vision and Ophthalmology guidelines for the use of animals in ophthalmic and vision research. In the Examples, the term “P(x)”, where X is a number, means postnatal day, e.g., P7 means 7 days after birth. Methods for the generation and characterization of rho/PDGF-A and rho/PDGF-B transgenic mice are known to those of ordinary skill. Hemizygous rho/PDGF-B, line 1 mice in a C57BU6 background and homozygous rho/PDGF-A, line 2 mice in a C57BU6 background are each divided into 5 groups and starting on P7 are treated by gavage once a day with vehicle or vehicle containing 50 mg/kg of PKC412, PTK787, SU1498 or Imatinib mesylate. […]
To perform quantitative assessments, 10 μm serial sections are cut through an entire eye starting with sections that included the iris root on one side of the eye and proceeding to the iris root on the other side. […] Image-Pro Plus software is used to delineate GSA- or GFAP-stained cells in the retina and their area is measured. […]
For comparisons between vehicle-treated eyes and eyes in the other treatment groups with regard to retinal detachments, data are analyzed using logistic regression with GEE to account for correlation between eyes. […]

`Clc1ccc(Nc2nnc(Cc3ccncc3)c3ccccc23)cc1` [PTK787, 1-(4-chloroanilino)-4-(4-pyridylmethyl)phthalazine] was tested, and the “eyes with total retinal detachment” value was 10-15%.
